Test results reported in article PMC6211770, “Structure-guided disruption of the pseudopilus tip complex inhibits the Type II secretion in Pseudomonas aeruginosa” (PLoS Pathogens, 2018).
These are yes or no findings as the source states them, for the method shown.

Columns and labels:
Test in all cases: SEC; each minor pseudopilin alone after removal of the Trx tag, Superdex 75, Buffer C (25 mM HEPES pH 7.0, 150 mM NaCl); both purified
[1] = target: XcpU (29–172), soluble form (P. aeruginosa) (UniProt Q00515)
[2] = target: XcpX (29–313), soluble form (P. aeruginosa) (UniProt Q00518)
[3] = target: XcpV (28–129), soluble form (P. aeruginosa) (UniProt Q00516)
[4] = target: XcpW (28–203), soluble form (P. aeruginosa) (UniProt Q00517)

B1: XcpU (29–172), soluble form (domain or fragment, UniProt Q00515 29-172)
chain: STGFASTSRELDSEAERLAGLIGVLTDEAVLDNREYGLRLERDAYQVLRYDEAKARWLPVARDSHRLPEWAELTFELDGQPLVLAGSKGEKEQKKGTDQPQLLILSSGELSPFRLRLAERGPEGRALSLSSDGFRLPRVEVARR
binding [1]: no binding

B2: XcpX (29–313), soluble form (domain or fragment, UniProt Q00518 29-313)
chain: IRQQLAIRSSANQLHVRQAWHYALGGERLAEAVLRRDLRQGGENTREPVDHLGEAWARPMTPFKLDDGGELRVRIEDPSGRFNLNGLVRKRKVKPDSVKQFRRLLATLGMKEEIVQGLPDRLADWLDADQNPQGEQGAEDNQYLLEAPAYRAANRSFKDVSELRLLKLSEADYRRLLPFVSALPEDAPLNVNTASVPVLAAMFEIDPGQAENIVDARGREGFQSKDDFTKHLTQLGSKTGNVSYAVGTRYFQVISEVSLGDRRQVLVSTLQRGKDGKIRVMARDM
binding [2]: no binding

B3: XcpV (28–129), soluble form (domain or fragment)
chain: SASARSLQNASRLEDKTLAMWIADNRLNELQLEQTPPSSGRNQGELEFAGRRWEWRTQVDSTAEQDMRRVIVWVAAKPLGRERGSIEERAAARLVGFLGSQP
notes: minor pseudopilin XcpV (GspI) of Pseudomonas aeruginosa, soluble form, residues 28-129; The XcpVWX complex was digested in situ with chymotrypsin before crystallisation; the chains in PDB 5VTM may be shorter; also called XcpV^(GspI); GspI; source: E. coli BL21 (DE3), purified (Ni2+-NTA, TEV digestion, Superdex 75); not shown: thioredoxin (Trx), N-terminal, cleaved
binding [3]: no binding

B4: XcpW (28–203), soluble form (domain or fragment, UniProt Q00517 28-203)
chain: RMFDSVMQTDQATRVQEQRMRELVRAMGALERDLTQAVERPVRDELGDNRGAFLSEGENDQIVEFTRGGWRNPLGQARSRLQRVRWSLSGETLERRYWLVLDRAQDSKPRVQQVLDGVTALSWRFLDKEHNWQGHWPTDEGSEEERLESLPLAVEMTLEHRHYGKLVRVWRLLDPP
binding [4]: no binding
